Results are given in words; binding and its absence hold for the method and conditions named. In cells and extracts the contact can be indirect. Some binding calls cover weakened binding; strength is not graded here.

Sequences of proteins named here, by UniProt entry; tags and fusion partners are left off.
UniProt Q60610: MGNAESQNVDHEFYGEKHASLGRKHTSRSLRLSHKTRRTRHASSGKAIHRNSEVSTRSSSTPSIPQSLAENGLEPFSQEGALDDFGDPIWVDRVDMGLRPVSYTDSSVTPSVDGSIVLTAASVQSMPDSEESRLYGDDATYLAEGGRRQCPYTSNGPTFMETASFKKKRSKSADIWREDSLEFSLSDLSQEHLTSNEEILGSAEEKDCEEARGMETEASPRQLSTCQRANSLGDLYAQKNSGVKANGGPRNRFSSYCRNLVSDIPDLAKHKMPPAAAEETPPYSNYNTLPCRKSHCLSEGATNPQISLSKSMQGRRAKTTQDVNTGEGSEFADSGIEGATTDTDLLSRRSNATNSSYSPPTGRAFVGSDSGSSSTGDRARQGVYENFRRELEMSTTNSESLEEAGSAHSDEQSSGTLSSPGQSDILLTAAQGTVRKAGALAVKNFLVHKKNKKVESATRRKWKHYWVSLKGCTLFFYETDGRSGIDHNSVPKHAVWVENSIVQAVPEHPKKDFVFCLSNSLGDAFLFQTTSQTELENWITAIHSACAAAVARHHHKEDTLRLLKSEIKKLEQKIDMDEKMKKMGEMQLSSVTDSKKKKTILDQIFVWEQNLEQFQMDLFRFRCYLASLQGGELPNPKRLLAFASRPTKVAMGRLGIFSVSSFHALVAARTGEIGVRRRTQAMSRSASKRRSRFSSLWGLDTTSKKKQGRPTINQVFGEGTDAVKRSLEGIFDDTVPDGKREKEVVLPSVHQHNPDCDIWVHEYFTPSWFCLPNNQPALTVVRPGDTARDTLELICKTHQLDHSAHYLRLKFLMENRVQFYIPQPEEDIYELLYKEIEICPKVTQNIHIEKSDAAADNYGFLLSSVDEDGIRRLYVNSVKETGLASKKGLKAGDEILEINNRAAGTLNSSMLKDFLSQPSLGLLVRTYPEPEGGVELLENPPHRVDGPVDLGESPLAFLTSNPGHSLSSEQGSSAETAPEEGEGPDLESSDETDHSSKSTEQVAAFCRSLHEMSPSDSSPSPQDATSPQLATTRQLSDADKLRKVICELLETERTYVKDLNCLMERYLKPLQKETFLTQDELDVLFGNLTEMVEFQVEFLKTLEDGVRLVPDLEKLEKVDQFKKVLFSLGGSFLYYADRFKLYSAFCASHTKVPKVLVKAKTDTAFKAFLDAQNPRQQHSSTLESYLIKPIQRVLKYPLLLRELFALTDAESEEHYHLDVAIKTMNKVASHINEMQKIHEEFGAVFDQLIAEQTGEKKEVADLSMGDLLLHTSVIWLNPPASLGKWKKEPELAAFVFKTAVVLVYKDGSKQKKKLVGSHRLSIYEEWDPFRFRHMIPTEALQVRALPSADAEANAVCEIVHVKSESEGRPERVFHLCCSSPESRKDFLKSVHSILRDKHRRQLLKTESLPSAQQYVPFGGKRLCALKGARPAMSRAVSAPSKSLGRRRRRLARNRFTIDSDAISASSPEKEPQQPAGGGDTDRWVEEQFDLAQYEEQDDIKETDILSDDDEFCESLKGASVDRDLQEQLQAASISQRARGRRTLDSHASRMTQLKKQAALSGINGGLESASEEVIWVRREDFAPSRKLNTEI
UniProt Q7Z6Z7: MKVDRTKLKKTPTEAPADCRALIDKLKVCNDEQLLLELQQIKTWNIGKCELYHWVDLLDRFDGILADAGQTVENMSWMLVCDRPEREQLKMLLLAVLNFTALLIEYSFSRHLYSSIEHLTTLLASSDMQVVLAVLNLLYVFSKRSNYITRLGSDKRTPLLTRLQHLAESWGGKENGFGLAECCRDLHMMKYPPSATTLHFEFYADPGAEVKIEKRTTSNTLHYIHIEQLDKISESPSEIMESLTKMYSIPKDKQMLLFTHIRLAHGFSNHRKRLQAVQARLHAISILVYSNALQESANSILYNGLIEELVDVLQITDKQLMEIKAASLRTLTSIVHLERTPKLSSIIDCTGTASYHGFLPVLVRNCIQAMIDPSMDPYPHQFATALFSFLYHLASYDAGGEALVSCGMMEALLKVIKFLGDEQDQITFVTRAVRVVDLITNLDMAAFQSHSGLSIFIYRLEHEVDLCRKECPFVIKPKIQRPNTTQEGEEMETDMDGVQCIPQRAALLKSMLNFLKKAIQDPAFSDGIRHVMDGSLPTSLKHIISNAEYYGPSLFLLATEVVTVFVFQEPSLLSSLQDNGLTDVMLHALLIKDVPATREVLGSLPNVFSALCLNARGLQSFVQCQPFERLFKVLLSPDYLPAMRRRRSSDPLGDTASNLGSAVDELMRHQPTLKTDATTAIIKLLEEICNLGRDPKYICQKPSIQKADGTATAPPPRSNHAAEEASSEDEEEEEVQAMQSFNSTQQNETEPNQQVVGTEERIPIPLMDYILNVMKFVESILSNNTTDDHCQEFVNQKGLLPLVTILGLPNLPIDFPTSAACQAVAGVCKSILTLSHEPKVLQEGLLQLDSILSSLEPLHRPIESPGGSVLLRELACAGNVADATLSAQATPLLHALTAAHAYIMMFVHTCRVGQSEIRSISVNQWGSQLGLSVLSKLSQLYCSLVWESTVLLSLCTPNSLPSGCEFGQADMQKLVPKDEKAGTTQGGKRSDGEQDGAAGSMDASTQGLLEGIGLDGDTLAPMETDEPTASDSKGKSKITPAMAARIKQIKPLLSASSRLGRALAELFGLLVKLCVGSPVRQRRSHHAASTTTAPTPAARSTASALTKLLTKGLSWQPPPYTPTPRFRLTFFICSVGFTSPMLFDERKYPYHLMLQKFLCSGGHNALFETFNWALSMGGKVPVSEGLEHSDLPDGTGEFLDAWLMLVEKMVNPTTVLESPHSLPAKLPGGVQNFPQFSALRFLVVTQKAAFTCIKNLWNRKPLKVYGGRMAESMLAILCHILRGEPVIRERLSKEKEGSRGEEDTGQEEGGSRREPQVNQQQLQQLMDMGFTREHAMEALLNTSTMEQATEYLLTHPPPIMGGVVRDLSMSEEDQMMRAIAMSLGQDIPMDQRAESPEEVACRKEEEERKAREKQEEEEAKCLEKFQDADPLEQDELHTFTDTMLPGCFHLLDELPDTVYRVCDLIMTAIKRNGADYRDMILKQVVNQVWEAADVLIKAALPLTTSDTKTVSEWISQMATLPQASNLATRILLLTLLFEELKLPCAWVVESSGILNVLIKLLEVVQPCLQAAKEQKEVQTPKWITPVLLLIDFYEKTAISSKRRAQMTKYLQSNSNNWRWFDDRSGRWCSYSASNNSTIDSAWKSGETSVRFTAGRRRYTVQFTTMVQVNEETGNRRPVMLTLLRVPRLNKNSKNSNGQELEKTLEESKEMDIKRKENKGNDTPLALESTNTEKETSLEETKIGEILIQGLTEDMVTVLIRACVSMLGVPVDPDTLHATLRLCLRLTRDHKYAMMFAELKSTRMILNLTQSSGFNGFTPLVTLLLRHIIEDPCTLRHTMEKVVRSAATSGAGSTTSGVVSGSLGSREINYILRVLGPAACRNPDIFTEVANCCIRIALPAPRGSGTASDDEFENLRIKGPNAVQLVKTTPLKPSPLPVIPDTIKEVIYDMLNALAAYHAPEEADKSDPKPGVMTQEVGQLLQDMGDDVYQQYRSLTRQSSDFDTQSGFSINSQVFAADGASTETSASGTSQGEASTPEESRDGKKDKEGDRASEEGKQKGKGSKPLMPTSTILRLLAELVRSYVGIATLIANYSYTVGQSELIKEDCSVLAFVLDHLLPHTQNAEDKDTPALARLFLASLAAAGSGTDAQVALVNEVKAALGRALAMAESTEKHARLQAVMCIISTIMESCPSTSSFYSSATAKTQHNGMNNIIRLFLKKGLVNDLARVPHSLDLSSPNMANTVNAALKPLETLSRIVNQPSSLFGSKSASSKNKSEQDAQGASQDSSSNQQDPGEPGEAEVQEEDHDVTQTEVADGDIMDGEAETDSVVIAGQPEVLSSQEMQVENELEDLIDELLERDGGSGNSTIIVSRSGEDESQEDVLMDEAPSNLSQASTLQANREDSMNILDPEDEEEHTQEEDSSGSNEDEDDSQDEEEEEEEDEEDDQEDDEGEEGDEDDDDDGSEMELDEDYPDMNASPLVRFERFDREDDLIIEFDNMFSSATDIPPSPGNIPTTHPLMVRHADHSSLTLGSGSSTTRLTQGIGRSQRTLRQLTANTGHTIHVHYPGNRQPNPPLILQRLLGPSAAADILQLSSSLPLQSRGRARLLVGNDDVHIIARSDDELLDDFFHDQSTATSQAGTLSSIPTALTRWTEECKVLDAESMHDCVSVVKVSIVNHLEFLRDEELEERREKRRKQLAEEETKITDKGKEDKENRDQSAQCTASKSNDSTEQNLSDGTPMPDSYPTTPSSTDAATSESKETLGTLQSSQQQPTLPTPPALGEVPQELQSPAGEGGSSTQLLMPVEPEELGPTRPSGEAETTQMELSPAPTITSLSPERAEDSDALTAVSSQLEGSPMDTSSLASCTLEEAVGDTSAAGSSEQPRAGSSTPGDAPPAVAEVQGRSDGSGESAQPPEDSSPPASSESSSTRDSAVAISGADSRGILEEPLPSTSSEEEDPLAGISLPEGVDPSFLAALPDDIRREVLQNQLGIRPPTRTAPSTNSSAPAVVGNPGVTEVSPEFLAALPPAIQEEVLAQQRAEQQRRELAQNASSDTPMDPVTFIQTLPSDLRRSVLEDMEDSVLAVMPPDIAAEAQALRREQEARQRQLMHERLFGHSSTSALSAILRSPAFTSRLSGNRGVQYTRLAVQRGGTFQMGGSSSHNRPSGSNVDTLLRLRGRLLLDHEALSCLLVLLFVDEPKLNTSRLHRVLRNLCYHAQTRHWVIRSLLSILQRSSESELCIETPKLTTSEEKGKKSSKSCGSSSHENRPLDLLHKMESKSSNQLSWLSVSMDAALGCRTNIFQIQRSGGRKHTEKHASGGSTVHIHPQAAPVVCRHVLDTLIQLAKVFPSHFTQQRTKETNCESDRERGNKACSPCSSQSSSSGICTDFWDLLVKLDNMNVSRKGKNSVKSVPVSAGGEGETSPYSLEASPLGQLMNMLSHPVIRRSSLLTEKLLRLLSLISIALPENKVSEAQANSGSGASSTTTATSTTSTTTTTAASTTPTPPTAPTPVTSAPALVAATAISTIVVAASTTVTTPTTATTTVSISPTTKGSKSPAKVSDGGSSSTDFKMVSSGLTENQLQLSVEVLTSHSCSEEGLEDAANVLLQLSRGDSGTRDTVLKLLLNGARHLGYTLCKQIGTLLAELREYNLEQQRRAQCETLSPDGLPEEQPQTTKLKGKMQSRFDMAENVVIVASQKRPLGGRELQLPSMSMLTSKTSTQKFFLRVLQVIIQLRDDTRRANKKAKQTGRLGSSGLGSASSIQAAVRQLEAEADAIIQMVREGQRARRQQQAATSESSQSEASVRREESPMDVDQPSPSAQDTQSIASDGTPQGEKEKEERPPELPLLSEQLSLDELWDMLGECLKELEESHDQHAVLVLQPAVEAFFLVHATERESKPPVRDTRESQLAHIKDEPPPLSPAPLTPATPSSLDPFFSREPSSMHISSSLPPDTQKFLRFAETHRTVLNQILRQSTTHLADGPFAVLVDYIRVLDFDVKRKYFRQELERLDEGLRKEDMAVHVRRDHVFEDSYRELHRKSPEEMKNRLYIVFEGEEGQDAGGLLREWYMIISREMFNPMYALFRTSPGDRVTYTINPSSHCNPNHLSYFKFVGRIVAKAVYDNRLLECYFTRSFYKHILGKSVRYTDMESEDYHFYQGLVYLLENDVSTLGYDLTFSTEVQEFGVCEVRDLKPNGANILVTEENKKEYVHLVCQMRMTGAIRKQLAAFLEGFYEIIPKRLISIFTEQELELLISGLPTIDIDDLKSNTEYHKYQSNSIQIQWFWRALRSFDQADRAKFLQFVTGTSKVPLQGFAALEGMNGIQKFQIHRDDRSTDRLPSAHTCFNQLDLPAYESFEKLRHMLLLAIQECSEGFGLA

The experiment has as its target exogenous TIAM1 in HEK293T cells (UniProt Q60610). Nature of the experiment: co-IP; exogenous TIAM1 in HEK293T cells (Figure S3A).

As for “HUWE1 in HEK293T cells (from UniProt Q7Z6Z7 1-4374) (enzyme)”, the binding entry is listed as “binds”.

The values above are taken from PMC4542307.
